Experimental data: PubChem BioAssay AID1347426 (Functional Genomics Laboratory (NCATS/FGL), 2020)
In all, about 31,000 sequences went through this assay and about 1,400 (4.5%) were called active.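 The calls were made as follows: active = median seed-adjusted z-score above 1 or below -1; inactive = the rest.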 The list shows a part of the results.

Test: Novel Modifiers of Survival Motor Neuron (SMN) Protein: Gene Identification via Genome-wide siRNA Screen;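 also: luminescence tracks full-length SMN protein made from the SMN2 reporter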
Details: HEK293T SMN2-luciferase reporter, siRNA knockdown, 72 h; actives lie on both sides
Procedure, shortened: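 Each of three siRNAs per gene is reverse-transfected (1 pmol) into reporter HEK293T cells whose luciferase output tracks SMN protein level. After 72 h culture, ONE-Glo luminescence is control-normalized, log10-transformed and MAD-standardized; Common Seed Analysis deprioritizes seed-driven hits.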

Sequence | median seed-adjusted z-score
CCAGCAAUUUCACAAGGAATT against NONO | inactive: 0.555
CCUCGUCGAUCGUGCAUCUTT against ADRA2C | inactive: 0
CUGCGAAUCCAAUUAUUUATT against HCRTR2 | inactive: -0.236
GAGUGAGGACGGAAGAUCATT against APH1A | inactive: 0.741
CCCUCAAACUCGCAACAAATT against ABL2 | inactive: 0.293
GCAUGCUGCUGGCAGAUCATT against GSTP1 | inactive: -0.61
CCACUUCCAUCUCAAGCGATT against GABRA3 | inactive: -0.281
GCUAUUAGAGCAUUCUAAATT against BAG2 | inactive: -0.87
GUAACGAAUUUACAACUGUTT against CXADR | inactive: 0.872
CAAACCCGUUAAUCACUAUTT against TEK | inactive: -0.347
CAUAGUAGAUCAAAUCUUATT against ZNF284 | inactive: 0.21
GUCUCGCUGUGAUAGAUCATT against ELN | inactive: -0.149
CUAUGAUUACGGACAUGGATT against KHDRBS3 | inactive: 0.0681
AGAUCCGAGUGAAUGCAGUTT against DCXR | inactive: -0.394
CGUUUUUGACAACUACUCUTT against RAC3 | inactive: 0.477
GUCGAUGACUUGAAGAACATT against P11 | inactive: 0.14
GCACGGGCCUUGUUAUCAATT against PLD5 | inactive: -0.0377
CAAUUUCGCUCCAAAUAUUTT against SLC39A8 | inactive: 0.265
GAGACUUGGGAGAACCUAATT against LRTM1 | inactive: 0.492
GCUUUAGUCUUGAUCAUGATT against NOX3 | inactive: 0.04
GGAAAGGACUAAAAUACAATT against APOBEC3F | inactive: -0.315
GUCGCAUAGUAGAUAUACATT against SOS1 | inactive: 0
GGUCGAUAAUCCUAACUAUTT against CLGN | inactive: 0.18

Sequence | median seed-adjusted z-score
AACUACUCCCUGCUACUCATT against HES2 | inactive: -0.186
AUGUCCGACUUAUUCGAGATT against MAP1LC3B | inactive: -0.0749
CCAUCACGGCAGUUUGCAATT against RORB | inactive: 0.044
GACAUUGUUUCAUCCUCCATT against MECP2 | inactive: -0.332
GGAUGGUUGUGAGCCGCUATT against ZNF784 | inactive: 0.291
GAAAGUUGUUUGUCAUGUUTT against ARR3 | inactive: -0.0936
GGAGCAUUGGUUUUCGGGATT against HEYL | inactive: 0.48
GCAAAUCUUCCUUCAACAATT against PTF1A | inactive: 0.482
GCCCAUGUCCCAAAUCACATT against PDE4A | inactive: -0.147
GGACCUGAGAGUAAGCACATT against ZDHHC8 | inactive: 0
CAGAGAACAUUAUCAAGGATT against SYP | inactive: -0.0289
CACUCGCAUUUGGAGUAAATT against NPY2R | inactive: 0.121
CGUAUGAUCUUUCUGGGAATT against AGMAT | inactive: -0.0269
GGAAUUAAACUAGAUCGAUTT against DGKE | inactive: -0.0589
GCAAAAUGAUCGCACAGAUTT against TRIML1 | inactive: 0
GAAUCACUCUGGAGAGCUATT against ILK | inactive: -0.231
CUAUUGGUUUCAUAACAUUTT against LIPJ | inactive: 0.295
GGAAGGGCUAUGUUACUAATT against ZNF155 | inactive: 0.698
UCUACGCAGUGGUCACCAATT against BLK | inactive: -0.274
GGUGUCCUUCUAUUCCAAUTT against CHRNB2 | inactive: -0.649
GUCUUGGAACUGUCUUAUUTT against TUBA1C | inactive: 0.157
GAAACGACAGUCAAAUUCATT against CD34 | inactive: -0.0898
CAGGGUUCCUGACAGAAUATT against MAPK1 | inactive: 0

Sequence | median seed-adjusted z-score
GAGGCCACCUAUUGUUUCATT against MYL6B | inactive: 0.11
GCUGAUAUCGUCUUUGUUUTT against DNAJB1 | inactive: 0.466
GGGAAGUUCUUUACUCAGATT against ZNF501 | inactive: 0.19
AGUGUAACCAUCAGUUAAATT against CHCHD2 | inactive: 0.0884
CGUCUUUACAAAUACGGCATT against PARD6B | inactive: 0.315
GGAGGAUCUGAAUGCCUCATT against LDHD | inactive: 0
GAGAUUUGGUAAAUCGUUUTT against SPZ1 | inactive: 0.535
GGCUGUGAUUCACGACAAATT against KIF26B | inactive: -0.153
GUCAAGAAGUAUUUUGUCATT against FBXO6 | inactive: 0.0361
UAAAGUUCUUUUAUCCAUUTT against UBE2D3 | active: 1.62
GGAUAUACAGAAUGACAUUTT against ACBD5 | inactive: -0.118
CUCUGAAGGAUGCACCCAATT against CTBP1 | inactive: 0.105
GGCUUUCCACGAGCACUUCTT against RGS3 | inactive: 0.065
GGAAUGACAUUGAUGAACATT against AMT | inactive: -0.506
CCAUGUCUACCAAAGUUUATT against PLSCR1 | inactive: 0.661
CCCUCAGUCAAAUUGCCUATT against CHMP4A | inactive: -0.209
AAAAAUCGCUGGACAUGUATT against DNASE2B | inactive: 0.86
CACCAUUGAAGUUCCCUUUTT against STARD3 | inactive: -0.314
GGAUUCACCUACGCUCUUATT against CHD1L | inactive: 0.63
GUUCAUGCAUGGGUGGAAATT against CD200R2 | inactive: -0.772
GGAACUACUGGUGAACUAUTT against MCAM | inactive: -0.0884
GCAGUGGCAAAAAUGGAAATT against CYP2W1 | inactive: -0.0986
CUUUCAACCUAUCCUCAAATT against ZNF107 | inactive: 0.0761

14 entries from above, tab-delimited.
Sequence	median seed-adjusted z-score
GAGGCCACCUAUUGUUUCATT against MYL6B	inactive: 0.11
GCUGAUAUCGUCUUUGUUUTT against DNAJB1	inactive: 0.466
GGGAAGUUCUUUACUCAGATT against ZNF501	inactive: 0.19
CGUCUUUACAAAUACGGCATT against PARD6B	inactive: 0.315
GAGAUUUGGUAAAUCGUUUTT against SPZ1	inactive: 0.535
UAAAGUUCUUUUAUCCAUUTT against UBE2D3	active: 1.62
GGCUUUCCACGAGCACUUCTT against RGS3	inactive: 0.065
GGAAUGACAUUGAUGAACATT against AMT	inactive: -0.506
CCCUCAGUCAAAUUGCCUATT against CHMP4A	inactive: -0.209
AAAAAUCGCUGGACAUGUATT against DNASE2B	inactive: 0.86
CACCAUUGAAGUUCCCUUUTT against STARD3	inactive: -0.314
GGAUUCACCUACGCUCUUATT against CHD1L	inactive: 0.63
GUUCAUGCAUGGGUGGAAATT against CD200R2	inactive: -0.772
GGAACUACUGGUGAACUAUTT against MCAM	inactive: -0.0884
